# Measurements from PubChem BioAssay AID1117319 (Southern Research Institute, 2015).
# Protein sequences, listed by entry. Tags and fused reporters are not part of them. Lines headed by an entry give the natural chain unless they say otherwise; changes in a name come on top.
# UniProt P69720: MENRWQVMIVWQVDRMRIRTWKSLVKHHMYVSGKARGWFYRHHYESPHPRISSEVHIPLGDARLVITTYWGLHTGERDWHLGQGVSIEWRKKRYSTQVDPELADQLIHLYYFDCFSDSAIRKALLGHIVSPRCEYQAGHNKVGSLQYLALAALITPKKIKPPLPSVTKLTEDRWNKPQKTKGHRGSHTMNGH
# UniProt P69721: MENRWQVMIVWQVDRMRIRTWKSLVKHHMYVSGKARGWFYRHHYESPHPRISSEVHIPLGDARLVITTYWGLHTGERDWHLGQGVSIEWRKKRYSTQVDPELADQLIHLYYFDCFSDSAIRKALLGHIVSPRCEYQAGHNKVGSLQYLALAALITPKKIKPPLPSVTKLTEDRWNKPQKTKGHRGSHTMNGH
# UniProt P69722: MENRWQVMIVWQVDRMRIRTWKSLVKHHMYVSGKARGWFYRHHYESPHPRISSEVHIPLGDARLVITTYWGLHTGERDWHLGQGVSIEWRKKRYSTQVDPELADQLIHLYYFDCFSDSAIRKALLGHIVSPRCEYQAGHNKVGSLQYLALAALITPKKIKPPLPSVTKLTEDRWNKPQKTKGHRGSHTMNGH
# UniProt P69723: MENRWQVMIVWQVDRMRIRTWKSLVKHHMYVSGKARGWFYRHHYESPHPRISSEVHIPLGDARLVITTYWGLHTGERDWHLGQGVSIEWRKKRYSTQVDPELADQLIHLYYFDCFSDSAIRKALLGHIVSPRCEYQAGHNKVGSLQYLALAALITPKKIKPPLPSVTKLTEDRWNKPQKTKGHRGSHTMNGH
# UniProt Q9HC16: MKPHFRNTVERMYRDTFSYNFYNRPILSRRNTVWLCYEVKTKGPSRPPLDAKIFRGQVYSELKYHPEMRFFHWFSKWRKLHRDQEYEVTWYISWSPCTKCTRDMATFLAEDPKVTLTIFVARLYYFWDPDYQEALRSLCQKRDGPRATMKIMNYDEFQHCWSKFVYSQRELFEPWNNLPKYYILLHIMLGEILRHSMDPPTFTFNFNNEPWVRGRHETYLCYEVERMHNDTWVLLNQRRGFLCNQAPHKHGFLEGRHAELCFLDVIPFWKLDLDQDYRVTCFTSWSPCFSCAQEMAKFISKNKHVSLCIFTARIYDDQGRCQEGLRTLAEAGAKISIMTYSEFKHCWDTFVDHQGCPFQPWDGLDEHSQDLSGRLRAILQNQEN
# Hit rate of the full screen: of about 260,000 compounds, about 1,500 (0.58%) were called active. The inconclusive results got no clear call from the source; some entries with a clear call stand among them for comparison.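 The calls were made as follows: active = inhibition above a set limit at one or more doses, reproduced on every date tested; inconclusive = results disagree between test dates, or hit never tested in dose response; inactive = the rest.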
# Target: Virion infectivity factor (Human immunodeficiency virus type 1 group M subtype B (isolate BH10)) + Virion infectivity factor (Human immunodeficiency virus type 1 group M subtype B (isolate BRU/LAI)) + Virion infectivity factor (Human immunodeficiency virus type 1 group M subtype B (isolate PCV12)) + Virion infectivity factor (Human immunodeficiency virus type 1 group M subtype B (isolate HXB2)) + DNA dC->dU-editing enzyme APOBEC-3G (Homo sapiens) (UniProt P69720+P69721+P69722+P69723+Q9HC16)
# Test: inhibitors of Vif binding to APOBEC3G peptide, primary screen, biochemical, TR-FRET, GST-Vif 1-94, biotin-A3G peptide, dose response retest (AID 1117319);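 also: Vif residues 1-94 fused to GST binding biotinylated APOBEC3G peptide 110-148; 0% = full assay without inhibitor and 100% = GST in place of GST-Vif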
# Conditions: hits give high values
row,SMILES,inhibition
1,CCOC(=O)c1c(NC(=O)c2cccs2)sc(CC)c1-c1cccs1,inconclusive: 57.1%
2,CCC(C)(C)NC(=O)CN(Cc1cccs1)C(=O)C(=O)Nc1ccc2c(c1)OCCO2,inconclusive: 33.5%
3,CC(=NCCc1ccccc1)C1=C(O)CSC1=O,inconclusive: 33.5%
4,O=C(CSc1nnc(-c2ccc(OC(F)F)cc2)o1)N1CCOCC1,inconclusive: 33.6%
5,Cc1cccc(NC(=S)N/N=C/c2ccc(Cl)c([N+](=O)[O-])c2)c1,inconclusive: 59.3%
6,O=C(O)C(C(=O)/C=C/c1ccco1)=C1SCCS1,inconclusive: 58.5%
7,CCCOC(=O)c1ccc(Oc2cn[nH]c2-c2ccc(OCC)cc2O)cc1,inconclusive: 36.8%
8,O=C(Nc1ccn(-c2ccccc2)n1)c1ccc(Cl)cc1,inactive: -12.3%
9,Cc1ccc(-n2nc3c(c2NC(=O)C2CCCC2)CS(=O)(=O)C3)cc1,inconclusive: 58.4%
10,Nc1ccc2oc3ccc(N)cc3c(=O)c2c1,inconclusive: 65.7%
11,Cc1cccc(N2CCN(C(=O)CCS(=O)(=O)c3ccc(Br)cc3)CC2C)c1 (stereo unspecified),inconclusive: 74.2%
12,C=CCn1c(P(C)(=O)O)nc2ccccc21,inconclusive: 49.5%
13,O=C1CC(=C(c2ccccc2)c2ccccc2)C(=O)N1CCCN1CCN(c2cccc(Cl)c2)CC1,inconclusive: 44.3%
14,C/C(=C/C(=O)Nc1cccc(F)c1)N1CCCC1,inconclusive: 46.2%
15,NC(=O)CC(NC(=O)Cc1cccc2ccccc12)c1ccc(N2CCC(Br)CC2)c([N+](=O)[O-])c1 (stereo unspecified),inconclusive: 34.3%
16,Cc1cc(C)c(NC(=S)NC(=O)c2ccc(-c3ccccc3)cc2)c(C)c1,inconclusive: 35.5%
17,Cc1cc(NC(=O)C2=C(O)c3ccccc3S(=O)(=O)N2C)no1,inconclusive: 40.4%
18,COc1ccc(-n2nc3c(N)n[nH]c3cc2=O)cc1,inconclusive: 33.8%
19,Cc1ccccc1CN1C(=O)C(O)(CC(=O)c2ccncc2)c2ccccc21 (stereo unspecified),inconclusive: 34%

row,SMILES,inhibition
1,COc1cc(/C=N/NC(=O)c2cc(C)n(-c3ccc(F)cc3)c2C)cc(OC)c1O,inconclusive: 51.1%
2,Cc1ccc(C(=O)C=Cc2ccc3c(c2)OCO3)c(C)c1,inactive: 0.22%
3,CCOC(=O)N1CCN(C(=O)CN(Cc2ccccc2)S(=O)(=O)c2ccc(OC)c(Cl)c2)CC1,inactive: -0.5%
4,CC(OC(=O)c1ccc([N+](=O)[O-])s1)C(=O)Nc1ncc(Cl)cc1Cl (stereo unspecified),inconclusive: 49.2%
5,CN(C)Cc1cc(C(C)(C)c2cc(CN(C)C)c(O)c(CN(C)C)c2)cc(CN(C)C)c1O,inconclusive: 55.8%
6,CC(=O)NC1=NN(C(C)=O)C(C)(c2ccc3ccccc3c2)S1 (stereo unspecified),inconclusive: 37.2%
7,CC1(C)CC(Cc2nc(=S)[nH][nH]2)C(=O)O1 (stereo unspecified),inconclusive: 51%
8,COc1ccc(OC)c2[nH]c(=O)c(CCNC(=O)c3ccc(Br)o3)cc12,inconclusive: 47%
9,CC1(C(=O)OCC(=O)N2c3ccccc3Sc3ccccc32)CC1(Cl)Cl (stereo unspecified),inconclusive: 46.8%
10,CCCCOc1[nH]c2nc(-c3ccco3)n(Cc3ccco3)c(=N)c2c1C#N,inconclusive: 51.5%
11,O=C(c1ccc2c(c1)OCO2)N1CCN=C1SCc1cccnc1,inconclusive: 1.38%
12,COc1cc(C(=O)N2CCN(c3ccccc3)CC2)c([N+](=O)[O-])cc1OC,inconclusive: 48.1%
13,O=c1c(C(c2ccc(F)cc2)c2c(O)nc3n(c2=O)CCS3)c(O)nc2n1CCS2,inconclusive: 41.1%
14,CC(Nc1nc(N2CCN(S(C)(=O)=O)CC2)nc2ccccc12)c1ccccc1 (stereo unspecified),inconclusive: 42.8%
15,O=C(NCCOC(=O)c1ccc(C(=O)OCCNC(=O)c2ccccc2)o1)c1ccccc1,inconclusive: 55.7%
16,COC(=O)CCC(=O)OC1(C)C(=O)C2=CN(C(CO)CO)C(c3ccc(OC)cc3)=CC2=C(Br)C1=O (stereo unspecified),inconclusive: 56.4%
17,NS(=O)(=O)c1ccc(NC(=S)NC(=O)/C=C/c2ccco2)cc1,inconclusive: 40.2%
18,CC(C)CC(=O)Nc1ccccc1N1CCN(c2ccc(F)cc2)CC1,inconclusive: 55.6%
19,COC(=O)c1sc(NC(=O)C2CCCO2)c(C(=O)OC)c1C (stereo unspecified),inconclusive: 46.2%

row,SMILES,inhibition
1,CC1(C)OC2C(CO)OC(n3cnc4c(=S)nc[nH]c43)C2O1 (stereo unspecified),inconclusive: 49.1%
2,O=C(NCC1CCCO1)C(c1cccnc1)N(C(=O)Cc1cccs1)c1ccccc1 (stereo unspecified),inactive: 28.6%
3,Cc1ccc(F)c(NC(=O)c2ccc(Cn3cc(Cl)cn3)cc2)c1,inconclusive: 36.4%
4,O=C(Nc1cccc(Cl)c1)Nc1ccccc1C(=O)NCc1ccco1,inconclusive: 53%
5,CCOc1ccc(NC(=O)c2ccc3c(SCC(=O)O)c4c(nc3c2)CCCC4)cc1,inactive: 2.98%
6,COCCNC(=O)C(c1cccs1)N(C(=O)Cn1nnc2ccccc21)c1cccc(C)c1 (stereo unspecified),inconclusive: 42.8%
7,Cn1nnnc1SCCNS(=O)(=O)c1ccccc1,inactive: 2.62%
8,COCCOC(=O)C1=C(N)Oc2c(oc(CO)cc2=O)C1c1c(F)cccc1Cl (stereo unspecified),inconclusive: 41%
9,Cn1c(=O)[nH]c(=O)c2c1nc(SCCN1CCCCC1)n2CCCc1ccccc1,inconclusive: 54.8%
10,Cc1ncc(CCl)c2c1OC(C)(C)OC2,inconclusive: 39.9%
11,COc1ccc(S(=O)(=O)n2cnc3cc(C)c(C)cc32)cc1,inconclusive: 32.1%
12,CC(C)Oc1c(Br)cc(Br)cc1/C=N/NC(N)=S,inconclusive: 43%
13,c1ccc(-n2nnc3cnccc32)cc1,inconclusive: 57.1%
14,CN(C(=O)COc1ccccc1)c1nnc(-c2ccncc2)s1,inconclusive: 33%
15,CCCn1c(CCC(=O)O)ccc1-c1ccc(F)cc1,inconclusive: 47.5%
16,CCOC(=O)Cc1csc(NC(=O)c2csc3c2CCCC3)n1,inconclusive: 35.3%
17,O=C(Cc1ccccc1[N+](=O)[O-])Nc1ccc2c(c1)OCO2,inconclusive: 40.3%
18,C[n+]1cccc(C2C(C#N)=C(N)Oc3c2ccc2ccccc32)c1 (stereo unspecified),inconclusive: 35.7%

# Three of the compounds above, with tabs.
row	SMILES	inhibition
2	O=C(NCC1CCCO1)C(c1cccnc1)N(C(=O)Cc1cccs1)c1ccccc1 (stereo unspecified)	inactive: 28.6%
7	Cn1nnnc1SCCNS(=O)(=O)c1ccccc1	inactive: 2.62%
18	C[n+]1cccc(C2C(C#N)=C(N)Oc3c2ccc2ccccc32)c1 (stereo unspecified)	inconclusive: 35.7%
